Tested on: transcriptionally active regions (OSIP-encoding regions)
Assay: Tiling array identification of paraquat-induced OSIP-encoding regions (log2 ratio paraquat vs control)
Parameters: species or system Arabidopsis thaliana
Settings: A. thaliana leaves, 48 h after paraquat vs mock

“MNVLARAPRLRHQLQNLTQDRRKTQMQMKGQRVRTTSLQ (listed as Arabidopsis thaliana) [OSIP152]” was tested, and the “log2 ratio upon paraquat treatment in the tiling array” value (shortened to “log2 ratio upon paraquat treatment”) was 4.74.

For “MGLNEDSVFRSIKPFKSP (listed as Arabidopsis thaliana) [OSIP163]”, the “log2 ratio upon paraquat treatment” value was 5.07.

“MLCVLQGLRE (listed as Arabidopsis thaliana) [OSIP108]” was tested, and the “log2 ratio upon paraquat treatment” value was 5.42.

Reference: US20130326728A1, “AGENTS FOR INCREASED RESISTANCE AGAINST OXIDATIVE STRESS CONDITIONS” (KATHOLIEKE UNIVERSITEIT LEUVEN, priority 2010, published 2013)
